{"source": "PubChem BioAssay AID1259424, University of Nebraska Medical Center | 2018", "test": "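Seek colon cancer survival genes behaving like KSR1, using a six-gene signature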 (primary screen)", "cells": "human HCT116 colon cancer cells", "reagent": "siRNA pool against human genes, 50 nM", "detection": "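Log2 levels of six mRNAs (branched-DNA multiplex), adjusted by two reference genes and the non-targeting median, then scored against the average KSR1 knockdown pattern as Pearson r and euclidean distance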", "reading the numbers": "mean correlation with KSR1 profile: higher = expression change more like KSR1 knockdown", "note": "This is an unselected part of about 14,000 reagents. 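Higher correlation or smaller distance means closer resemblance to KSR1 loss; control wells, including KSR1 knockdowns, recur on many plates.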 Not all columns of the deposit are shown. The record does not give: the time to read-out."}
{"gene symbol": "CFAP45", "mean correlation with KSR1 profile": 0.161}
{"gene symbol": "RARG", "mean correlation with KSR1 profile": 0.31}
{"gene symbol": "OR7E91P", "mean correlation with KSR1 profile": 0.239}
{"gene symbol": "BLCAP", "mean correlation with KSR1 profile": 0.288}
{"gene symbol": "HAPSTR1", "mean correlation with KSR1 profile": -0.383}
{"gene symbol": "ATP1B2", "mean correlation with KSR1 profile": 0.0547}
{"gene symbol": "RAB26", "mean correlation with KSR1 profile": 0.617}
{"gene symbol": "PDE6H", "mean correlation with KSR1 profile": -0.518}
{"gene symbol": "OR2F1", "mean correlation with KSR1 profile": -0.022}
{"gene symbol": "CHUK", "mean correlation with KSR1 profile": -0.0688}
{"gene symbol": "GNAO1", "mean correlation with KSR1 profile": 0.69}
{"gene symbol": "NCF1C", "mean correlation with KSR1 profile": 0.3}
{"gene symbol": "CLIP2", "mean correlation with KSR1 profile": -0.299}
{"gene symbol": "INPP5B", "mean correlation with KSR1 profile": -0.559}
{"gene symbol": "CTDP1", "mean correlation with KSR1 profile": -0.373}
{"gene symbol": "IGKC", "mean correlation with KSR1 profile": 0.561}
{"gene symbol": "RNF11", "mean correlation with KSR1 profile": 0.0278}
{"gene symbol": "PSMB8", "mean correlation with KSR1 profile": -0.361}
{"gene symbol": "RAB17", "mean correlation with KSR1 profile": -0.509}
{"gene symbol": "HAUS4", "mean correlation with KSR1 profile": -0.423}
{"gene symbol": "RRP7A", "mean correlation with KSR1 profile": -0.247}
{"gene symbol": "BAGE3", "mean correlation with KSR1 profile": 0.583}
{"gene symbol": "DCUN1D5", "mean correlation with KSR1 profile": 0.591}
{"gene symbol": "CDA", "mean correlation with KSR1 profile": 0.247}
{"gene symbol": "CABP1", "mean correlation with KSR1 profile": -0.168}
{"gene symbol": "CDK5RAP2", "mean correlation with KSR1 profile": 0.0946}
{"gene symbol": "LRRC1", "mean correlation with KSR1 profile": -0.626}
{"gene symbol": "S1PR1", "mean correlation with KSR1 profile": 0.486}

3 successive entries already listed, for reference:
{"gene symbol": "CHUK", "mean correlation with KSR1 profile": -0.0688}
{"gene symbol": "GNAO1", "mean correlation with KSR1 profile": 0.69}
{"gene symbol": "NCF1C", "mean correlation with KSR1 profile": 0.3}
